Literature values in US20170304358A1, “PRIMARY AND SECONDARY PREVENTION OF DEMENTIAS AND SUICIDE WITH TRACE DOSE LITHIUM” (priority 2014, published 2017).
For at least one compound, name, drawing or mass did not settle the structure.

System: cognition in persons with MCI
Settings: standard doses of lithium, older adults with MCI

[Li] [lithium]
benefit in minimal cognitive impairment (MCI): some benefit
